# Values quoted from earlier work, collected in US20250115648A1 (priority 2013, published 2025).
# Settings: cited from earlier work
smiles,measurement,setting,value
O=C([O-])COc1cc(NC(=O)c2ccc3c(c2)C(=O)OC32c3cc(Cl)c([O-])cc3Oc3cc([O-])c(Cl)cc32)ccc1N(CC(=O)[O-])CC(=O)[O-].[K+].[K+].[K+].[K+].[K+] [Magnesium Green],Peak Abs.,peak absorbance wavelength of exemplary fluorescent reporter molecule,506 nanometers
same,Peak Em.,peak emission wavelength of exemplary fluorescent reporter molecule,530 nanometers
